Measured data: PubChem BioAssay AID1259308 (NCATS, 2017)

- Screen: 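Candidate targets for better recombinant protein yield in mammalian cells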 (primary screen)
- System: human HEK293 embryonic kidney cells stably expressing firefly luciferase (HEK-CMV-Luc2-Hygro)
- Reagent: single siRNA against human genes, 0.8 pmol siRNA per well
- Timing: 72 h
- Read-out: 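Reporter luminescence and viable-cell signal on separate replicate plates, given as percent of non-targeting control and median/MAD z-scores, plus per-cell luciferase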
- Reading the numbers: total luciferase, z-score and total luciferase, % of control: higher = more reporter protein produced; luciferase per cell, z-score: higher = more reporter output per viable cell; viable cells, % of control: higher = more viable cells
- Call rule: 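Active when the median/MAD z-score for overall luciferase is greater than 3; a gene was taken forward for validation with new siRNAs if at least two of its three siRNAs passed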
- Calls: active = raised luciferase; inactive = no rise
Shown is a random part of about 59,000 reagents. Of all reagents, about 1,510 (2.6%) got an active call. 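Calls use total luciferase alone and ignore viability, so some active siRNAs may act by altering cell number.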 A number with no mark means an inactive call. The numbers tell different reagents against one gene apart. Reagent sequences are not shown.

The opening 7 entries, ahead of the listing:
gene,reagent,"total luciferase, z-score","total luciferase, % of control","luciferase per cell, z-score","viable cells, % of control"
PREX2 (GeneID 80243),1,0.602,93.9,0.247,98.3
PREX2 (GeneID 80243),2,1.79,118,1.47,89.3
PREX2 (GeneID 80243),3,-0.777,66.4,-1.54,111
CDH10 (GeneID 1008),1,0.842,98.6,0.187,105
CDH10 (GeneID 1008),2,-0.0262,81.4,0.376,82.3
CDH10 (GeneID 1008),3,-1.37,54.7,-1.58,92.6
PLOD3 (GeneID 8985),1,-0.911,63.8,-0.505,81.4

The listing, repeating the preview:
gene,reagent,"total luciferase, z-score","total luciferase, % of control","luciferase per cell, z-score","viable cells, % of control"
PREX2 (GeneID 80243),1,0.602,93.9,0.247,98.3
PREX2 (GeneID 80243),2,1.79,118,1.47,89.3
PREX2 (GeneID 80243),3,-0.777,66.4,-1.54,111
CDH10 (GeneID 1008),1,0.842,98.6,0.187,105
CDH10 (GeneID 1008),2,-0.0262,81.4,0.376,82.3
CDH10 (GeneID 1008),3,-1.37,54.7,-1.58,92.6
PLOD3 (GeneID 8985),1,-0.911,63.8,-0.505,81.4
PLOD3 (GeneID 8985),2,-0.442,73.1,-0.415,91.1
PLOD3 (GeneID 8985),3,-2.18,38.5,-2.49,82.9
SLITRK2 (GeneID 84631),1,-0.322,75.5,-0.231,89.6
SLITRK2 (GeneID 84631),2,0.112,84.1,-0.116,96.9
SLITRK2 (GeneID 84631),3,0.58,93.4,0.981,80.6
SLC41A3 (GeneID 54946),1,1.06,103,1.18,84.4
SLC41A3 (GeneID 54946),2,1.81,118,0.871,105
SLC41A3 (GeneID 54946),3,-0.186,78.2,0.333,80
LCE4A (GeneID 199834),1,0.881,99.4,0.541,96.3
LCE4A (GeneID 199834),2,0.406,90,-0.0858,103
LCE4A (GeneID 199834),3,-0.94,63.2,-0.608,82.9
HOXB13 (GeneID 10481),1,-1.88,44.4,-2.48,95.4
HOXB13 (GeneID 10481),2,0.265,87.2,0.367,88.4
HOXB13 (GeneID 10481),3,-0.712,67.7,-1.14,102
XYLT1 (GeneID 64131),1,-1.24,57.2,-1.26,89
XYLT1 (GeneID 64131),2,0.414,90.1,0.451,89.4
XYLT1 (GeneID 64131),3,0.0784,83.4,-0.477,106
ANKRD65 (GeneID 441869),1,-0.405,73.8,2.22,45.9
ANKRD65 (GeneID 441869),2,1.7,116,0.883,103
ANKRD65 (GeneID 441869),3,0.462,91.1,1.01,78
RPL10P9 (GeneID 389342),1,0.73,96.4,0.734,88.8
RPL10P9 (GeneID 389342),2,-1.93,43.6,-1.82,78.5
RPL10P9 (GeneID 389342),3,-3.05,21.2,0.456,21
NUDT3 (GeneID 11165),1,-0.34,75.1,-0.456,94.7
NUDT3 (GeneID 11165),2,-1.18,58.5,-1.21,89.8
NUDT3 (GeneID 11165),3,-0.0691,80.5,-0.734,109
CCL13 (GeneID 6357),1,-0.182,78.3,-0.542,101
CCL13 (GeneID 6357),2,1.14,105,1.73,74.2
CCL13 (GeneID 6357),3,0.692,95.6,0.679,89.4
ADM2 (GeneID 79924),1,0.15,84.9,-0.0158,95.2
ADM2 (GeneID 79924),2,-0.128,79.3,0.137,85.5
ADM2 (GeneID 79924),3,-0.788,66.2,-0.708,89.2
IDH3G (GeneID 3421),1,-0.24,77.1,-0.573,100
IDH3G (GeneID 3421),2,-0.124,79.4,-0.534,102
IDH3G (GeneID 3421),3,0.273,87.3,0.0464,96.4
CPA1 (GeneID 1357),1,0.0289,82.5,-0.378,102
CPA1 (GeneID 1357),2,-0.889,64.2,-1.56,108
CPA1 (GeneID 1357),3,0.574,93.3,0.222,98.4
PUS1 (GeneID 80324),1,-1.37,54.6,-1.4,88.1
PUS1 (GeneID 80324),2,1.15,105,1.07,88.4
PUS1 (GeneID 80324),3,0.747,96.7,1.23,78.3
PIPOX (GeneID 51268),1,-0.0982,79.9,0.988,68.9
PIPOX (GeneID 51268),2,0.11,84.1,-0.347,103
PIPOX (GeneID 51268),3,0.155,85,-0.164,99.1
NFE2L3 (GeneID 9603),1,0.553,92.9,0.874,82.5
NFE2L3 (GeneID 9603),2,-0.101,79.9,-0.233,94.9
NFE2L3 (GeneID 9603),3,-0.963,62.7,-0.688,84
TTL (GeneID 150465),1,0.199,85.8,-0.312,104
TTL (GeneID 150465),2,-1.67,48.6,-1.54,81.5
TTL (GeneID 150465),3,-0.133,79.2,0.288,82.1
